Like-named read-outs stand apart in the source and are kept apart here. These are yes or no findings as the source states them, for the method shown. Binding seen in cells or lysates may run through a third protein. Some entries that bind do so weakly or less than the wild type. Blank lines part the entries; values can stand above or below the molecule they belong to.
Columns and labels:
[1] = molecular target: T1, AP180 (rat (endogenous in rat brain synaptosomes)) (UniProt Q05140); assay: co-IP; fractional recovery: immunoprecipitate from rat brain synaptosome lysate on beads split in three aliquots, 15 min on ice in RIPA buffer with 150, 650 or 1150 mM total salt; what stayed on the beads found by Western blot and densitometry; FR = recovery at 1150 mM / recovery at 150 mM, normalised to the FR of the IP-protein
T1 sequence: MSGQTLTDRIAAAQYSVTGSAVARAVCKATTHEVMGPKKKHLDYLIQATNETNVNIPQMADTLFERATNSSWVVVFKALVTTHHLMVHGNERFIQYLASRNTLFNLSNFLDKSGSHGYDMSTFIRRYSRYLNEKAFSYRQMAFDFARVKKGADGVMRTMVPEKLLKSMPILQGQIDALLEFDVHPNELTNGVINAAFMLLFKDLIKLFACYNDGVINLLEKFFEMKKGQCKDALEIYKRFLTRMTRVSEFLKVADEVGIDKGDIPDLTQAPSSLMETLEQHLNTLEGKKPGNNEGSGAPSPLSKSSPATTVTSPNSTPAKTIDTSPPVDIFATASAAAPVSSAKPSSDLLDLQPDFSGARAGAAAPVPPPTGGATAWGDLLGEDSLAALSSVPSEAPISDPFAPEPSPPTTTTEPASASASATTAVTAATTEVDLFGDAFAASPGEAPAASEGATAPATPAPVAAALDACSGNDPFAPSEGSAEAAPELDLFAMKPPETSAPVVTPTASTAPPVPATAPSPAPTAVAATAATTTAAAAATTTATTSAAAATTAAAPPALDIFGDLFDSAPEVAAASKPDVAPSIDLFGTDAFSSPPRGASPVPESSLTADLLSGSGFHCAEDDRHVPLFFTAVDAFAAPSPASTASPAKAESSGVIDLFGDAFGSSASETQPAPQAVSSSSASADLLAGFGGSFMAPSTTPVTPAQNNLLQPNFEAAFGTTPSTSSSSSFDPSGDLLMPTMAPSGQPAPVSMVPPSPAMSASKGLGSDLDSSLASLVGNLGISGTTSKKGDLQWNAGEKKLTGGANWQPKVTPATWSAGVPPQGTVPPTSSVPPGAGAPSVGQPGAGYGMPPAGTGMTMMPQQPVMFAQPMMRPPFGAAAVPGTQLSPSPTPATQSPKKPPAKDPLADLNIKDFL

By UniProt entry, the sequences of proteins in these tests, tags left out.
UniProt P11442: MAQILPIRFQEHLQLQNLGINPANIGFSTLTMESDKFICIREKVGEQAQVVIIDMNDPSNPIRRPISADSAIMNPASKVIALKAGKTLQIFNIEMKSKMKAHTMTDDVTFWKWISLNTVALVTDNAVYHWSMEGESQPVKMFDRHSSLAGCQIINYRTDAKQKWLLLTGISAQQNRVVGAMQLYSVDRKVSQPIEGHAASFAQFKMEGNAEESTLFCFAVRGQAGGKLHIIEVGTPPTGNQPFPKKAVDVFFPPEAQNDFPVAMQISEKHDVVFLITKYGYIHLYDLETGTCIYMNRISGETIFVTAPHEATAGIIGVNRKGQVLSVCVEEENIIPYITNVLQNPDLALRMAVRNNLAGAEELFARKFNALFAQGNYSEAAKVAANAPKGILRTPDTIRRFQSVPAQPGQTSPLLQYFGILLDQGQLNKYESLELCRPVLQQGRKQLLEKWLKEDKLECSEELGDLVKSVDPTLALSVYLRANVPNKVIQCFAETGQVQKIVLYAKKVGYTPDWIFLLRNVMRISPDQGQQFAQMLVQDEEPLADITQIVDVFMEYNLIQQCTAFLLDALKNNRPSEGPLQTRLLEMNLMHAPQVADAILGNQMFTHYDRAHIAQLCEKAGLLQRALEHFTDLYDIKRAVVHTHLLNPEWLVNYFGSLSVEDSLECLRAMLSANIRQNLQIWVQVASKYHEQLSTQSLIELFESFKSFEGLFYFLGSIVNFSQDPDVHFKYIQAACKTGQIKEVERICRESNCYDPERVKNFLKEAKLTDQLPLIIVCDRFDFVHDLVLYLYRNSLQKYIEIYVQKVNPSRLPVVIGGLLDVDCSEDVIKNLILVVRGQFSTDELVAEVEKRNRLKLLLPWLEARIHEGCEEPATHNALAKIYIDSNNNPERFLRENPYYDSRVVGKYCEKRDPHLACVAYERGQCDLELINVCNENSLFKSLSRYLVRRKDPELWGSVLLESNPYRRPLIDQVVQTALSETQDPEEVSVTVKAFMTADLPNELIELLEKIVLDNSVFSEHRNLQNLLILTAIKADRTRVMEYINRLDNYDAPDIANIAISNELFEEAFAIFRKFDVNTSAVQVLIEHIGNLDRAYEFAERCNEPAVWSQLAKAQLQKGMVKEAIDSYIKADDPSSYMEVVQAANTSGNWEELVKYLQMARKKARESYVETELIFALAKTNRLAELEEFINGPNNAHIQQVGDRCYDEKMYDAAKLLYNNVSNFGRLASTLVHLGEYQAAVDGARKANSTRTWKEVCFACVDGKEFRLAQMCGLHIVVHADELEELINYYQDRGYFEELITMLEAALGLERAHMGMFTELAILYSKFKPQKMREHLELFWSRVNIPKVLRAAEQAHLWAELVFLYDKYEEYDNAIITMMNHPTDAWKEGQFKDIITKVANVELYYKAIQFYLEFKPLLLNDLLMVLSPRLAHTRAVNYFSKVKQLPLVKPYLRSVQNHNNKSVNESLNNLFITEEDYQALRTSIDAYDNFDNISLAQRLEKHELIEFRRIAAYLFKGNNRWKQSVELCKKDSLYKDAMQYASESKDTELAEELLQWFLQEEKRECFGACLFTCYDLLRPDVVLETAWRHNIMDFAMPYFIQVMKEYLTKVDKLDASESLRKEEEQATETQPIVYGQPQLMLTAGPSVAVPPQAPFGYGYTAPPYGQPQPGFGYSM

[2] = molecular target: synaptotagmin 1 (rat (endogenous in rat brain synaptosomes)) (UniProt P21707); assay: as above
[3] = molecular target: synaptotagmin 1 (rat (endogenous in rat brain synaptosomes)) (UniProt P21707); assay: as above; remark: listed apart in the source
[4] = molecular target: T1, AP180 (rat (endogenous in rat brain synaptosomes)); assay: co-IP; rat brain synaptosome lysate in detergent lysis buffer at 150 mM ionic strength; antibody to the IP-protein overnight, protein A or A/G agarose beads, three washes; co-IP-protein found by Western blot
[5] = molecular target: heavy chain clathrin (rat (endogenous in rat brain synaptosomes)) (UniProt P11442); assay: as above

- binding [1]: binds
- binding [2]: binds
Molecule: heavy chain clathrin (from UniProt P11442 1-1675)

- binding [3]: binds
B1: AP180 (protein, UniProt Q05140 1-915)
chain: T1 sequence

- binding [4]: binds
- binding [5]: binds
B2: synaptotagmin 1 (natural protein, UniProt P21707 1-421, looked up)
chain: MVSASHPEALAAPVTTVATLVPHNATEPASPGEGKEDAFSKLKQKFMNELHKIPLPPWALIAIAIVAVLLVVTCCFCVCKKCLFKKKNKKKGKEKGGKNAINMKDVKDLGKTMKDQALKDDDAETGLTDGEEKEEPKEEEKLGKLQYSLDYDFQNNQLLVGIIQAAELPALDMGGTSDPYVKVFLLPDKKKKFETKVHRKTLNPVFNEQFTFKVPYSELGGKTLVMAVYDFDRFSKHDIIGEFKVPMNTVDFGHVTEEWRDLQSAEKEEQEKLGDICFSLRYVPTAGKLTVVILEAKNLKKMDVGGLSDPYVKIHLMQNGKRLKKKKTTIKKNTLNPYYNESFSFEVPFEQIQKVQVVVTVLDYDKIGKNDAIGKVFVGYNSTGAELRHWSDMLANPRRPIAQWHTLQVEEEVDAMLAVKK
notes: synaptotagmin 1, endogenous in synaptosomes from brains of 2-10 day old Sprague Dawley rats; also called STG; STG 1; source: endogenous, rat brain synaptosome lysate

Reference: publication PMC1762330, “‘Fractional Recovery’ Analysis of a Presynaptic Synaptotagmin 1-Anchored Endocytic Protein Complex” (PLoS ONE, 2006)
